In US8148355B2, “Phophylactic and therapeutic use of hydroxysteroids” (Hunter-Fleming Limited, priority 2001, dated 2012):

System: Langendorf perfused male rat hearts
Experiment: Cardioprotective effect in Langendorf perfused rat hearts (regional ischaemia/reperfusion, infarct size)
Parameters: species or system Wistar rats

C[C@]12CC[C@H](O)C[C@@H]1C[C@H](O)[C@@H]1[C@@H]2CC[C@]2(C)C(=O)CC[C@@H]12 [7βOH-EPIA, 7β-hydroxyepiandrosterone]
Coronary flow (100 nM in perfusate): not influenced | Risk zone volume (mm3) (100 nM in perfusate, control 109.3): 98.9 mm3 | heart function in conjunction with drug addition (100 nM, addition by itself before ischaemia): did not result in detectable changes in heart function | global left ventricular systolic pressure parameters (100 nM, during regional ischaemia (p<0.05 at 25 minutes), disappeared after reperfusion): slight reduction | decline of left ventricular developed pressure (LVDP) during regional ischaemia (100 nM, versus control): larger in drug treated hearts compared to the control | Heart-rate (100 nM, versus control group): not significantly different | diastolic pressure (100 nM, versus control group): No differences
